Assay results reported in patent publication US12378178B2, “Oleic acid derivatives as treatments for Friedreich ataxia and inhibitors of ferroptosis” (THE TRUSTEES OF THE UNIVERSITY OF PENNSYLVANIA, priority 2019, dated 2025).
At least one compound was matched to its structure with a doubt left.

How the values were obtained:
[1] = tested on: PGC1-α; test: PGC1-α expression in human FRDA fibroblasts GM3816; assay type: cell-based; settings: compound 10 μM; 96 h
Description: Oleic acid, as well as other fatty acids of different length and degree of saturation, binds and activates the peroxisome proliferator-activated receptor gamma (PPAR-γ), a key regulator of glucose and lipid metabolism, which up-regulates PGC1-α, among other targets. Pioglitazone, a PPAR-γ agonist is a thiazolidinedione used to treat type-2 diabetes. […] Human FRDA fibroblasts GM3816 were treated with 10 μM pioglitazone and increased PGC1-α expression was measured starting at 48 h. The expression doubled at 96 h, a time frame sufficient for PGC1-α to have an effect in a typical FAC+BSO experiment, whereas 16 μM oleic acid increased PGC1-α expression only 1.4 fold after 96 h.

[2] = tested on: Human FRDA fibroblasts GM3816; test: Survival of cells treated with FAC+BSO (pioglitazone); assay type: cell-based

For `CCc1ccc(CCOc2ccc(CC3SC(=O)NC3=O)cc2)nc1` (centres unmarked) [pioglitazone], the “PGC1-α expression” value [1] was “doubled” and the “survival of cells treated with FAC+BSO” value [2] was “did not affect survival”.
